# Where “and” joins values, the source holds several entries; their conditions need not be identical. Equal values may be shown once. At least one structure is not confirmed: it was looked up by name or label, or the drawing left a doubt.
# Assays:
# [1] = Wide-angle X-ray diffraction (XRD); format: physicochemical; details: powder / lyophilized specimen, 1:8 mole ratio where loaded
# Description: The operating conditions were CuKα radiation (0.154 nm), voltage 40 kV and current 40 mA, in 20 recording range from 3° to 65°, at room temperature.
# [2] = Water content by Karl Fischer Coulometer; format: physicochemical; details: dried CXB samples
# Description: In this experiment the water content of celocoxib (CXB), beta-casein (β-CN) 1% nanocarriers, Sigma beta-casein (β-CN, Sigma material), and CXB-loaded β-CN 1% nanocarriers was measured by Metrohm 831 Karl Fischer Coulometer.
# In an attempt to reduce the water content, an additional lypholization cycle was performed for the empty and CXB-loaded β-CN 1% nanocarriers. After this second lyophilization cycle water content was measured by Metrohm 831 Karl Fischer Coulometer.
# Specifically, the first cycle lasted for 24 hours (data is presented in tables 5-7) then all samples were subjected to an additional cycle of lyophilization that lasted for 48 hours (total of 72 hours). Tables 8 and 9 present the results of samples that were subjected to 24, […], and 72 hours of lyophilization.
smiles,measurement,setting,value
"Cc1ccc(-c2cc(C(F)(F)F)nn2-c2ccc(S(N)(=O)=O)cc2)cc1 [Celecoxib, celecoxib]",Solid form by X-ray diffraction,[1],crystalline form
same,"% water, AVR",[2]; average,4.5%
same,% water,"[2]; single sample, listed as CXB",6.7% and 4.6% and 6.4% and 1.4% and 3.2%

# — patent US8871276B2, “Beta-casein assemblies for mucosal delivery of therapeutic bioactive agents” (Technion Research and Development Foundation Ltd., priority 2008, dated 2014)
